From patent publication US6025370A, “Quinolonecarboxylic acid derivatives or salts thereof” (Toyama Chemical Co., Ltd., priority 1996, dated 2000)
In brackets after ≈: the same amount, converted by molar mass.

System: S. aureus F-597
Test: Antibacterial activity (MIC), S. aureus F-597 (methicillin-resistant)
Type: cell-based
Details: Staphylococcus aureus, F597, 20 h
Description: According to the standard method of Japan Society of Chemotherapy [CHEMOTHERAPY, vol. 29, No. 1, pages 76-79 (1981)], a loopful of a cell suspension obtained by culturing in Mueller Hinton broth (mfd. by Difco) at 37° C. for 20 hours and adjusted to a concentration of 10^6 cells/plate (10^8 cells/ml) was inoculated into a Mueller Hinton agar medium (mfd. by Difco) containing the test compound, followed by incubation at 37° C. for 20 hours. […] In Table 1, *1 to *4 denote the following strains:
3: methicillin-resistant S. aureus

Compound: O=C(O)c1cn(C2CC2)c2cc(N3CCNCC3)c(F)cc2c1=O [j, 1-Cyclopropyl-6-fluoro-7-(1-piperazinyl)-1,4-dihydro-4-oxoquinoline-3-carboxylic acid, reference compound]
- MIC: 3.13 µg/mL (≈ 9.45 µM)
